Laboratory results as given in patent US20050026957A1, “Methods of treating nodulocystic acne” (Allergan, Inc., priority 2003, published 2005).
At least one read-out could not be matched to a standard name with certainty.

Assay: Effect of body weight on plasma tazarotenic acid Cmax and AUC after oral tazarotene
Assay type: in vivo, human
Details: single daily dose of 6 mg tazarotene; healthy volunteers; p>0.05

SMILES: CC1(C)CCSc2ccc(C#Cc3ccc(C(=O)O)cn3)cc21 [tazarotenic acid]
- effect of body weight on plasma Cmax and AUC (systemic exposure): no effect of body weight
